The target in this experiment is T1, Noc2-TAP (S. cerevisiae) (UniProt P39744).
T1 sequence: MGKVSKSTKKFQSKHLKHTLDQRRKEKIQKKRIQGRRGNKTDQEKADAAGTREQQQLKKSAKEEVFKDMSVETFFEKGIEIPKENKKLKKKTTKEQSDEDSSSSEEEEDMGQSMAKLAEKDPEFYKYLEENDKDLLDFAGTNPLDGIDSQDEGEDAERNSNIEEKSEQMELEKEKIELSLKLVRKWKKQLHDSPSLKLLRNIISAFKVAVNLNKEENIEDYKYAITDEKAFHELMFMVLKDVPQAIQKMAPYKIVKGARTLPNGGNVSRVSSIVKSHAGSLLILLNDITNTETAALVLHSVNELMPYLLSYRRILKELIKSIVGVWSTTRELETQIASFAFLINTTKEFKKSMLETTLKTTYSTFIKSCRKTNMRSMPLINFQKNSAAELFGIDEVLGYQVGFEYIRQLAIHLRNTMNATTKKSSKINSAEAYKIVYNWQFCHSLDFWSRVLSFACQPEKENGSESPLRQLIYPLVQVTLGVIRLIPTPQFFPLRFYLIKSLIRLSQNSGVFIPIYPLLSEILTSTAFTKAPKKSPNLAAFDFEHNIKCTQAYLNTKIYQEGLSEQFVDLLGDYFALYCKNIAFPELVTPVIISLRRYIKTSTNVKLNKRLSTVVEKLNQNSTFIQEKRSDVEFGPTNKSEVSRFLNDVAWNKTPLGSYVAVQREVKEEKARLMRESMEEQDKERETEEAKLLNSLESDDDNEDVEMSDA
Put plainly: affinity purification with mass spectrometry; Noc2-TAP and associated pre-ribosomal particles purified on magnetic beads coated with rabbit IgG from total cellular extracts of yeast (wild type and GAL1/10 r-protein expression mutants after 4 h in glucose medium); eluted proteins digested with trypsin, peptides labelled with iTRAQ and identified by mass spectrometry; levels normalised to Noc2-TAP.

Results are given in words; binding and its absence hold for the method and conditions named. In cells and extracts the contact can be indirect. Here binding means that the protein was enriched with, or labelled near, the bait; the list need not be complete.

B1: Nsa2 (protein, UniProt P40078 1-261)
chain: MPQNDYIERHIKQHGKRLDHEERKRKREARESHKISERAQKLTGWKGKQFAKKRYAEKVSMRKKIKAHEQSKVKGSSKPLDTDGDALPTYLLDREQNNTAKAISSSIKQKRLEKADKFSVPLPKVRGISEEEMFKVIKTGKSRSKSWKRMITKHTFVGEGFTRRPVKMERIIRPSALRQKKANVTHPELGVTVFLPILAVKKNPQSPMYTQLGVLTKGTIIEVNVSELGMVTAGGKVVWGKYAQVTNEPDRDGCVNAVLLV
Consider B1, for which the binding entry was “binds”.

B2: Erb1 (protein, UniProt Q04660 1-807)
chain: MMAKNNKTTEAKMSKKRAASEESDVEEDEDKLLSVDGLIDAEASESDEDDDEYESAVEEKESSSDKEAQDDSDDDSDAELNKLLAEEEGDGEEDYDSSEFSDDTTSLTDRLSGVKLQTIVDPNIYSKYADGSDRIIKPEINPVYDSDDSDAETQNTIGNIPLSAYDEMPHIGYDINGKRIMRPAKGSALDQLLDSIELPEGWTGLLDKNSGSSLNLTKEELELISKIQRNEQTDDSINPYEPLIDWFTRHEEVMPLTAVPEPKRRFVPSKNEAKRVMKIVRAIREGRIIPPKKLKEMKEKEKIENYQYDLWGDSTETNDHVMHLRAPKLPPPTNEESYNPPEEYLLSPEEKEAWENTEYSERERNFIPQKYSALRKVPGYGESIRERFERSLDLYLAPRVRKNKLNIDPNSLIPELPSPKDLRPFPIRCSTIYAGHKGKVRTLSIDPSGLWLATGSDDGTVRVWEILTGREVYRTTLIDDEENPDYHIECIEWNPDANNGILAVAVGENIHLIVPPIFGYDIENNGKTKIEDGFGYDTFGTVKKSNLEVNENGDGDEDGENESAKNAVKKQVAQWNKPSQKQLEKDICITISCKKTVKKLSWHRKGDYFVTVQPDSGNTSVLIHQVSKHLTQSPFKKSKGIIMDAKFHPFKPQLFVCSQRYVRIYDLSQQILVKKLLPGARWLSKIDIHPRGDNLIASSFDKRVLWHDLDLASTPYKTLRYHEKAVRSVNFHKKLPLFSSAADDGTIHVFHATVYDDMMKNPMIVPLKKLTGHKVINSLGVLDAIWHPREAWLFSAGADNTARLWTT
On to B2, for which the binding result is listed as “binds”.

B3: Ebp2 (protein, UniProt P36049 1-427)
chain: MAKGFKLKELLSHQKEIEKAEKLENDLKKKKSQELKKEEPTIVTASNLKKLEKKEKKADVKKEVAADTEEYQSQALSKKEKRKLKKELKKMQEQDATEAQKHMSGDEDESGDDREEEEEEEEEEEGRLDLEKLAKSDSESEDDSESENDSEEDEDVVAKEESEEKEEQEEEQDVPLSDVEFDSDADVVPHHKLTVNNTKAMKHALERVQLPWKKHSFQEHQSVTSETNTDEHIKDIYDDTERELAFYKQSLDAVLVARDELKRLKVPFKRPLDYFAEMVKSDEHMDKIKGKLIEEASDKKAREEARRQRQLKKFGKQVQNATLQKRQLEKRETLEKIKSLKNKRKHNEIDHSEFNVGVEEEVEGKRFDRGRPNGKRAAKNAKYGQGGMKRFKRKNDATSSADVSGFSSRKMKGKTNRPGKSRRARRF
Regarding B3, the binding result was “binds”.

B4: Nop15 (protein, UniProt P53927 1-220)
chain: MVKSTSKTSTKETVTKQPTEEKPIQEKEELALETSSSSSDEEDEKDEDEIEGLAASDDEQSGTHKIKRLNPKKQANEKKSKDKKTLEEYSGIIYVSRLPHGFHEKELSKYFAQFGDLKEVRLARNKKTGNSRHYGFLEFVNKEDAMIAQESMNNYLLMGHLLQVRVLPKGAKIEKLYKYKKRVLVEKGITKPVKQLKDNMKQKHEERIKKLAKSGIEFKW
With B4, the binding result is on record as “binds”.
